Experimental data from PMC11094052.
No constants are given. Whether binding was seen depends on the method and setting. In cells and extracts the contact can be indirect. Some results given as binding are weak or reduced against the parent protein; the word gives no strength.

By UniProt entry, the sequences of proteins in these tests, tags left out.
UniProt P42859: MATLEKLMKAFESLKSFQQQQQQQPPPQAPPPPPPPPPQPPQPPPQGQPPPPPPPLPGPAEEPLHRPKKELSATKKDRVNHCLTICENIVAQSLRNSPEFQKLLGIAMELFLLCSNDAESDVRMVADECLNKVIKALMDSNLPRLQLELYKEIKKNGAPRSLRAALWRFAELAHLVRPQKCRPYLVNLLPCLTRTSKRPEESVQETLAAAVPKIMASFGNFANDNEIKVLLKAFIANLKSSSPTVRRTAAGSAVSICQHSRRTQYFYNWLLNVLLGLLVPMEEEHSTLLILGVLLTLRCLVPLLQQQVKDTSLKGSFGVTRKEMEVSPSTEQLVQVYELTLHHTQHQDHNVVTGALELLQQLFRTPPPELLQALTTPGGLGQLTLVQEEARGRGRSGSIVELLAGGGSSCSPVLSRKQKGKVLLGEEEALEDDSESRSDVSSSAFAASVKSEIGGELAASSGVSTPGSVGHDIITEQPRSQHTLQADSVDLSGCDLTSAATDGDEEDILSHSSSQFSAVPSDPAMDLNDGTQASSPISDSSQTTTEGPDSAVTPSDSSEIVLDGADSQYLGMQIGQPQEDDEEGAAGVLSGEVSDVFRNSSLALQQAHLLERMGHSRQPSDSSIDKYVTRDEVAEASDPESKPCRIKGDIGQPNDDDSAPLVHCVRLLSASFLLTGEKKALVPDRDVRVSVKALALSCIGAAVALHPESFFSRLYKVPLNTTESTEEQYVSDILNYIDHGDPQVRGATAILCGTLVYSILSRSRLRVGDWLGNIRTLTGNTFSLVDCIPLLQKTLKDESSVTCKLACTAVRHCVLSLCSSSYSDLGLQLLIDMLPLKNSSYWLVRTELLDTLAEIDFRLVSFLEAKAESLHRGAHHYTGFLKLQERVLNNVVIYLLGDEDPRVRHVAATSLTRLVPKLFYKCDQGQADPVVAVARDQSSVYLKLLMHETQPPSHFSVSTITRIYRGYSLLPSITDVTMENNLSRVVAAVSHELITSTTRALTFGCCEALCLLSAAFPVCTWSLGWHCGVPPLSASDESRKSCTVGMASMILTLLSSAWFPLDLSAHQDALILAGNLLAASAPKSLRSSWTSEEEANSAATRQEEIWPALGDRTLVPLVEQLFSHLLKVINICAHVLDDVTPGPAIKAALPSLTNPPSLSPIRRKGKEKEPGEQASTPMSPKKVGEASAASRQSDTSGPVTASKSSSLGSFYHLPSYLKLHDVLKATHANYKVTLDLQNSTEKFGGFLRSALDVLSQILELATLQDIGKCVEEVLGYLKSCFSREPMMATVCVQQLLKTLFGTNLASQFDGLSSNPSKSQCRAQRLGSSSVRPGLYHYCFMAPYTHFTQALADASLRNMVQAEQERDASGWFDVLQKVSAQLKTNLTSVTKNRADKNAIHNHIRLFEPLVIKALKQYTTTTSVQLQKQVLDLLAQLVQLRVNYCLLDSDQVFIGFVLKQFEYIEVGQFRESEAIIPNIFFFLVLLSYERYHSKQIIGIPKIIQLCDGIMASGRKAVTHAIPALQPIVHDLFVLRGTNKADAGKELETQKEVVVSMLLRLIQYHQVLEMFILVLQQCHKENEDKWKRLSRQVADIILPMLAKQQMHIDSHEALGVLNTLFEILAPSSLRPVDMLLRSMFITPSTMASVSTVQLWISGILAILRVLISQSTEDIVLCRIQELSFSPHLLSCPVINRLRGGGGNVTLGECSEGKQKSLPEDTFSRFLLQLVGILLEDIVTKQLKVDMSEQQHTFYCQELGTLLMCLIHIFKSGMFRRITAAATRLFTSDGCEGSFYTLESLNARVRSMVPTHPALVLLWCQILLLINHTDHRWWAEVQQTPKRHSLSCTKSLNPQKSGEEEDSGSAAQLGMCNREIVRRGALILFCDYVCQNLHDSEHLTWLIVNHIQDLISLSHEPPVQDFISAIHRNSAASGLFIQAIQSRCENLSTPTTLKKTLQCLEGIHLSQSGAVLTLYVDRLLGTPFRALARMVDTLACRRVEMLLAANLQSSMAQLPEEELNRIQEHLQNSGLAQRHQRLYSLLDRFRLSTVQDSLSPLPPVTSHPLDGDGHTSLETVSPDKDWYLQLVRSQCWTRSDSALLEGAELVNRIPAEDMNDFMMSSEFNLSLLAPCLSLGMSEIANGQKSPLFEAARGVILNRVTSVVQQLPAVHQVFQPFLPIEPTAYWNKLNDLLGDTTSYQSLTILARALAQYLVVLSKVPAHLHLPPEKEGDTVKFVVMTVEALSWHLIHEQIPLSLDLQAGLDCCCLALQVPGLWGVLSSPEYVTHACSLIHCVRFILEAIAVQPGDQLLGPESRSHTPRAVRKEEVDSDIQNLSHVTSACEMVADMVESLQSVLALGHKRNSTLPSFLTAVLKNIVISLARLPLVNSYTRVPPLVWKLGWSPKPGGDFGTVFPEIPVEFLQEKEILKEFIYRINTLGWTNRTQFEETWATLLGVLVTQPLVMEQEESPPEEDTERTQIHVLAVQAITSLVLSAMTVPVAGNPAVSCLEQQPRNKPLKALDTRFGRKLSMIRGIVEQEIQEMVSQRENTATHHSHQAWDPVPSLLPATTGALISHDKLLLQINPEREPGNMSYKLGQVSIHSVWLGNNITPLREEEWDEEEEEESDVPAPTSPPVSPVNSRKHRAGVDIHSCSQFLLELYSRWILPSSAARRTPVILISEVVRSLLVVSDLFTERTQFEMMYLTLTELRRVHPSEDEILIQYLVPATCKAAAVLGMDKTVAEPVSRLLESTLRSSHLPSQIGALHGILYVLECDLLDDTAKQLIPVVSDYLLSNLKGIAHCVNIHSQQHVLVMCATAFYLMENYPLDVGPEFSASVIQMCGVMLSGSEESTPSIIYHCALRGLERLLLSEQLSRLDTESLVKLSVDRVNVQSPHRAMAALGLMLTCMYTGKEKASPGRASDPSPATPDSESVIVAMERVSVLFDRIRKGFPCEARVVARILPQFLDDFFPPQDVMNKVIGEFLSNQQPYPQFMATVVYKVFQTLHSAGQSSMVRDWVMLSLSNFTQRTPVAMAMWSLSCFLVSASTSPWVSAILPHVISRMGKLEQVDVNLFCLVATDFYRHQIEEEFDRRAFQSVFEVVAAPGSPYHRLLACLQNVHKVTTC

Molecular target: T1, Huntingtin-associated protein 40 (HAP40), endogenous in mouse brain (mouse (endogenous in HD140Q KI mouse brain)) (UniProt Q00558)
T1 sequence: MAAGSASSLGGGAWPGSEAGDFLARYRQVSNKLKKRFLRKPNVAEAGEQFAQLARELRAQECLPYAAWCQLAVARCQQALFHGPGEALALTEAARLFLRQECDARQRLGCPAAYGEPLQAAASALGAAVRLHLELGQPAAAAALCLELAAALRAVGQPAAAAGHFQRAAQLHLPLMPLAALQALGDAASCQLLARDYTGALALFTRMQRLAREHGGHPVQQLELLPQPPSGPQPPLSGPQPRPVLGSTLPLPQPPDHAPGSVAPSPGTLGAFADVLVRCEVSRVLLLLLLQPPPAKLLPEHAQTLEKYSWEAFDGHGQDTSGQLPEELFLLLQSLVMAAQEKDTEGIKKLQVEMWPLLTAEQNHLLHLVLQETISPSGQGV
Test: co-IP; brain lysate of heterozygous HD140Q KI mice in 1% NP-40 buffer (150 mM NaCl, 2 mM EDTA, 50 mM Tris pH 8.0); endogenous HAP40 precipitated with the HAP40 antibody and Protein G beads, 4 °C overnight; HTT detected by blot with mEM48, MAB2166 or D7F7

**Q.** How did the binding turn out when “full-length wild-type HTT (WT HTT), endogenous in mouse brain (from UniProt P42859 1-3119)” was run?
**A.** binds
